Test results taken from publication PMC5854669, “Zinc knuckle of TAF1 is a DNA binding module critical for TFIID promoter occupancy”.

Biological target: T1, TAF1 ZnC charge mutant (ZnC_RK) R1295A,K1298A (Homo sapiens) (UniProt P21675)
T1 sequence (looked up): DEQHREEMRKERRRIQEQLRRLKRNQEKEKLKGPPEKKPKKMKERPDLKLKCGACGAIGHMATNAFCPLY
Assay: BLI
Settings: BLI: 10 mM HEPES pH 7.9, 5 mM MgCl2, 100 mM NaCl, 10% glycerol, 0.1% ovalbumin, 0.2 mM dI:dC, 30 °C; recombinant protein; residues 1234-1303; protein details: His-GB1; label: 5'-biotin (BLI), 5'-32P (EMSA)

GTCCTCAGTCGCGATCGAACACTCGAGCCGAGCAGACGTGCCTA (double strand) [IMD (Inr, MTE, DPE of super core promoter)]
binding result: binds more weakly

The comparison behind a weaker result is the experiment's own reference, which may not be listed here. Protein sequences can lack the tags named with them.
